Data taken from patent US20250352608A1, “POLYPEPTIDES HAVING ANTI-INFLAMMATORY EFFECTS AND USES THEREOF” (OneSkin, Inc., priority 2020, published 2025).
For some of these results: At least one peptide structure holds a part that was inferred or is arguable (an end, a ring closure or a residue). For some of these results: At least one structure is not confirmed: it was looked up by name or label, or the drawing left a doubt. Ends that are not written are not given here.

What was measured:
[1] = system: HGPS human dermal fibroblasts; assay: RNA-Seq gene expression; type: cell-based; details: Rapamycin-treated (100 uM) HGPS and healthy donor fibroblasts
[2] = system: peripheral blood mononuclear cells (PBMCs); assay: PBMC proliferation with PHA activation (MTT); type: cell-based, human; details: with 5 μg/mL PHA, 5 days (Peptide 14 3.12 μM; rapamycin 100 nM)
Method: The effect of Peptide 14 on T cell activation was assessed by treating PBMCs stimulated with phytohaemagglutinin (PHA) with Peptide 14. PHA usually can trigger lymphocyte activation and cell division. PBMCs that were untreated with PHA or Peptide 14 served as negative control of lymphocyte activation. In the phytohaemagglutinin group, the PBMCs were activated with 5 μg/mL of PHA for 5 days. In the Peptide 14 and PHA group, the PBMCs were activated with 5 μg/mL of PHA and treated with 3.12 μM of Peptide 14 for 5 days. In the Peptide 14 group, the PBMCs were treated with 3.12 μM of Peptide 14 for 5 days. In the rapamycin group, the PBMCs were treated with 100 nM of rapamycin, a well-known immunosuppressive drug for 5 days. In the rapamycin+PHA group, the PBMCs were activated with 5 μg/mL of PHA and treated with 100 nM of rapamycin for 5 days. The viability and proliferation of PBMCs were analyzed by MTT assay. Briefly, after 5 days of treatment, the cells were incubated with […] MTT reagent for 4 hours. Then, 100 μL of DMSO was added into each well, and the absorbance was detected at 595 nm.

[3] = system: peripheral blood mononuclear cells (PBMCs); assay: PBMC mRNA of IFN-γ and IL-10 (RT-qPCR); type: cell-based, human
Method: The effect of Peptide 14 on T cell activation was assessed by treating PBMCs stimulated with phytohaemagglutinin (PHA) with Peptide 14. PHA usually can trigger lymphocyte activation and cell division. PBMCs that were untreated with PHA or Peptide 14 served as negative control of lymphocyte activation. In the phytohaemagglutinin group, the PBMCs were activated with 5 μg/mL of PHA for 5 days. In the Peptide 14 and PHA group, the PBMCs were activated with 5 μg/mL of PHA and treated with 3.12 μM of Peptide 14 for 5 days. In the Peptide 14 group, the PBMCs were treated with 3.12 μM of Peptide 14 for 5 days. In the rapamycin group, the PBMCs were treated with 100 nM of rapamycin, a well-known immunosuppressive drug for 5 days. In the rapamycin+PHA group, the PBMCs were activated with 5 μg/mL of PHA and treated with 100 nM of rapamycin for 5 days. […] IFN-γ is typically produced in lymphocytes stimulated by PHA and may be used as marker of PBMC stimulation level. IL-10 is an anti-inflammatory cytokine. The cells from each of the experimental groups were processed for total RNA isolation, reverse transcription of the RNA and RT-qPCR. Data is represented as relative expression normalized to ubiquitous gene expression and untreated PBMC negative control.

[4] = system: Primary fibroblasts from Progeria patients; assay: Senescence in Progeria fibroblasts (LKGIL, WLKGI); type: cell-based, human; details: 5 μM and 50 μM

Compound	genes of the Peptide 14 signature with similar mRNA expression alterations [1]	relative PBMC proliferation, % of negative control [2]	relative expression level of IFN-γ vs negative control ([3]; single agent, 5 days (Peptide 14 3.12 μM; rapamycin 100 nM; PHA 5 μg/mL))	relative expression level of IFN-γ vs negative control ([3]; with 5 μg/mL PHA, 5 days (Peptide 14 3.12 μM; rapamycin 100 nM))	SA β-galactosidase staining vs untreated cells [4]	average number of ATRX foci/nuclei vs untreated cells [4]
CO[C@H]1C[C@@H]2CC[C@@H](C)[C@@](O)(O2)C(=O)C(=O)N2CCCC[C@H]2C(=O)O[C@H]([C@H](C)C[C@@H]2CC[C@@H](O)[C@H](OC)C2)CC(=O)[C@H](C)/C=C(\C)[C@@H](O)[C@@H](OC)C(=O)[C@H](C)C[C@H](C)/C=C/C=C/C=C/1C [rapamycin]	three	slightly higher level of proliferation than rapamycin alone	increased slightly	did not bring the relative expression level of IFN-γ back down significantly		
LKGIL [LKGIL]					significantly decreased	significantly decreased
WLKGI [WLKGI]					decreased	
